According to ChEMBL document CHEMBL4316593 (Eur J Med Chem, 2019):
Further values from the same series stand in other lists.

Tests used:
Type in all cases: cell-based
Conditions in all cases: U-87MG ATCC
[1] = Inhibition of RTK/PI3K/AKT/mTOR signaling in human U87 cells assessed as down regulation of HIST1H4I gene expression at cytotoxic IC50 measured after 48 hrs relative to control
[2] = Inhibition of RTK/PI3K/AKT/mTOR signaling in human U87 cells assessed as down regulation of SLC7A8 gene expression at cytotoxic IC50 measured after 48 hrs relative to control
[3] = Inhibition of RTK/PI3K/AKT/mTOR signaling in human U87 cells assessed as down regulation of HIST1H2AC gene expression at cytotoxic IC50 measured after 48 hrs relative to control
[4] = Inhibition of RTK/PI3K/AKT/mTOR signaling in human U87 cells assessed as up regulation of nuclear receptor coactivator 5 gene expression at cytotoxic IC50 measured after 48 hrs relative to control
[5] = Inhibition of RTK/PI3K/AKT/mTOR signaling in human U87 cells assessed as up regulation of mir-100-let-7a-2 cluster host gene gene expression at cytotoxic IC50 measured after 48 hrs relative to control
[6] = Inhibition of RTK/PI3K/AKT/mTOR signaling in human U87 cells assessed as down regulation of PDPK1 gene expression at cytotoxic IC50 measured after 48 hrs relative to control
[7] = Inhibition of RTK/PI3K/AKT/mTOR signaling in human U87 cells assessed as down regulation of AUNIP gene expression at cytotoxic IC50 measured after 48 hrs relative to control
[8] = Inhibition of RTK/PI3K/AKT/mTOR signaling in human U87 cells assessed as up regulation of microtubule associated serine/threonine kinase 1 gene expression at cytotoxic IC50 measured after 48 hrs relative to control
[9] = Inhibition of RTK/PI3K/AKT/mTOR signaling in human U87 cells assessed as down regulation of VPS18 gene expression at cytotoxic IC50 measured after 48 hrs relative to control
[10] = Inhibition of RTK/PI3K/AKT/mTOR signaling in human U87 cells assessed as up regulation of RAB3D, member RAS oncogene family gene expression at cytotoxic IC50 measured after 48 hrs relative to control
[11] = Inhibition of RTK/PI3K/AKT/mTOR signaling in human U87 cells assessed as up regulation of P4HA1 gene expression at cytotoxic IC50 measured after 48 hrs relative to control
[12] = Inhibition of RTK/PI3K/AKT/mTOR signaling in human U87 cells assessed as down regulation of RAPH1 gene expression at cytotoxic IC50 measured after 48 hrs relative to control
[13] = Inhibition of RTK/PI3K/AKT/mTOR signaling in human U87 cells assessed as up regulation of stearoyl-CoA desaturase gene expression at cytotoxic IC50 measured after 48 hrs relative to control
[14] = Inhibition of RTK/PI3K/AKT/mTOR signaling in human U87 cells assessed as down regulation of GAK gene expression at cytotoxic IC50 measured after 48 hrs relative to control
[15] = Inhibition of RTK/PI3K/AKT/mTOR signaling in human U87 cells assessed as down regulation of CFAP20 gene expression at cytotoxic IC50 measured after 48 hrs relative to control
[16] = Inhibition of RTK/PI3K/AKT/mTOR signaling in human U87 cells assessed as down regulation of LEPR gene expression at cytotoxic IC50 measured after 48 hrs relative to control
[17] = Inhibition of RTK/PI3K/AKT/mTOR signaling in human U87 cells assessed as down regulation of ZNF138 gene expression at cytotoxic IC50 measured after 48 hrs relative to control
[18] = Inhibition of RTK/PI3K/AKT/mTOR signaling in human U87 cells assessed as up regulation of CD47 molecule gene expression at cytotoxic IC50 measured after 48 hrs relative to control
[19] = Inhibition of RTK/PI3K/AKT/mTOR signaling in human U87 cells assessed as down regulation of CCDC117 gene expression at cytotoxic IC50 measured after 48 hrs relative to control
[20] = Inhibition of RTK/PI3K/AKT/mTOR signaling in human U87 cells assessed as up regulation of EGFR gene expression at cytotoxic IC50 measured after 48 hrs relative to control
[21] = Inhibition of RTK/PI3K/AKT/mTOR signaling in human U87 cells assessed as up regulation of SLC1A3 gene expression at cytotoxic IC50 measured after 48 hrs relative to control
[22] = Inhibition of RTK/PI3K/AKT/mTOR signaling in human U87 cells assessed as down regulation of DNAJB4 gene expression at cytotoxic IC50 measured after 48 hrs relative to control
[23] = Inhibition of RTK/PI3K/AKT/mTOR signaling in human U87 cells assessed as down regulation of SLF2 gene expression at cytotoxic IC50 measured after 48 hrs relative to control
[24] = Inhibition of RTK/PI3K/AKT/mTOR signaling in human U87 cells assessed as up regulation of echinoderm microtubule associated protein like 3 gene expression at cytotoxic IC50 measured after 48 hrs relative to control
[25] = Inhibition of RTK/PI3K/AKT/mTOR signaling in human U87 cells assessed as up regulation of FBXO9 gene expression at cytotoxic IC50 measured after 48 hrs relative to control
[26] = Inhibition of RTK/PI3K/AKT/mTOR signaling in human U87 cells assessed as down regulation of IDI1 gene expression at cytotoxic IC50 measured after 48 hrs relative to control
[27] = Inhibition of RTK/PI3K/AKT/mTOR signaling in human U87 cells assessed as down regulation of CLU gene expression at cytotoxic IC50 measured after 48 hrs relative to control
[28] = Inhibition of RTK/PI3K/AKT/mTOR signaling in human U87 cells assessed as down regulation of TSPYL1 gene expression at cytotoxic IC50 measured after 48 hrs relative to control
[29] = Inhibition of RTK/PI3K/AKT/mTOR signaling in human U87 cells assessed as up regulation of endothelin converting enzyme 1 gene expression at cytotoxic IC50 measured after 48 hrs relative to control
[30] = Inhibition of RTK/PI3K/AKT/mTOR signaling in human U87 cells assessed as down regulation of TRIP12 gene expression at cytotoxic IC50 measured after 48 hrs relative to control
[31] = Inhibition of RTK/PI3K/AKT/mTOR signaling in human U87 cells assessed as up regulation of neurexophilin 4 gene expression at cytotoxic IC50 measured after 48 hrs relative to control
[32] = Inhibition of RTK/PI3K/AKT/mTOR signaling in human U87 cells assessed as down regulation of UBE2T gene expression at cytotoxic IC50 measured after 48 hrs relative to control

CC(=O)C(=NNc1ccccc1C#N)C(C)=O
log2FC [1]: -2.03
log2FC [2]: -1.18
log2FC [3]: -1.45
log2FC [4]: 0.816
log2FC [5]: 1.23
log2FC [6]: -0.919
log2FC [7]: -1.3
log2FC [8]: 1.27
log2FC [9]: -0.798
log2FC [10]: 0.821
log2FC [11]: 3.49
log2FC [12]: -1.43
log2FC [13]: 1.26
log2FC [14]: -0.58
log2FC [15]: -0.616
log2FC [16]: -1.07
log2FC [17]: -2.04
log2FC [18]: 0.789
log2FC [19]: -1.03
log2FC [20]: 0.589
log2FC [21]: 2.2
log2FC [22]: -1.23
log2FC [23]: -1.08
log2FC [24]: 0.907
log2FC [25]: 0.629
log2FC [26]: -1.2
log2FC [27]: -3.32
log2FC [28]: -0.453
log2FC [29]: 0.876
log2FC [30]: -0.925
log2FC [31]: 0.987
log2FC [32]: -0.956
